Assay results reported in the supplement of paper PMC6411743.
± gives the standard deviation of the averaged measurements. The list shows a part of the results, in another mix than the full data.

Sequences of proteins named here, by UniProt entry; tags and fusion partners are left off. A change or cut given only in a name is not applied to a line headed by its entry.
UniProt Q9ULK6: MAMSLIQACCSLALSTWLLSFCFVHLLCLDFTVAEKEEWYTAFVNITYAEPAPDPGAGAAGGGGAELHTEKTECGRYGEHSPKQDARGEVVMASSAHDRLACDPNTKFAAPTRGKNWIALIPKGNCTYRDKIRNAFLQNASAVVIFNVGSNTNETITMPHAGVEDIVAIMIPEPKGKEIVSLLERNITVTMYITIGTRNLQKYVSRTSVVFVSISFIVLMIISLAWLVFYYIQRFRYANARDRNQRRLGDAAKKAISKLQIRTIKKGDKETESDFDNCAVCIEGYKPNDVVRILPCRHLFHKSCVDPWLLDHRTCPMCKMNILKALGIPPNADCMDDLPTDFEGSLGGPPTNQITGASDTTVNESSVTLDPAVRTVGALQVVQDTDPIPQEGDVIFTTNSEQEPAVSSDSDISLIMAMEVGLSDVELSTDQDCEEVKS
UniProt Q92560: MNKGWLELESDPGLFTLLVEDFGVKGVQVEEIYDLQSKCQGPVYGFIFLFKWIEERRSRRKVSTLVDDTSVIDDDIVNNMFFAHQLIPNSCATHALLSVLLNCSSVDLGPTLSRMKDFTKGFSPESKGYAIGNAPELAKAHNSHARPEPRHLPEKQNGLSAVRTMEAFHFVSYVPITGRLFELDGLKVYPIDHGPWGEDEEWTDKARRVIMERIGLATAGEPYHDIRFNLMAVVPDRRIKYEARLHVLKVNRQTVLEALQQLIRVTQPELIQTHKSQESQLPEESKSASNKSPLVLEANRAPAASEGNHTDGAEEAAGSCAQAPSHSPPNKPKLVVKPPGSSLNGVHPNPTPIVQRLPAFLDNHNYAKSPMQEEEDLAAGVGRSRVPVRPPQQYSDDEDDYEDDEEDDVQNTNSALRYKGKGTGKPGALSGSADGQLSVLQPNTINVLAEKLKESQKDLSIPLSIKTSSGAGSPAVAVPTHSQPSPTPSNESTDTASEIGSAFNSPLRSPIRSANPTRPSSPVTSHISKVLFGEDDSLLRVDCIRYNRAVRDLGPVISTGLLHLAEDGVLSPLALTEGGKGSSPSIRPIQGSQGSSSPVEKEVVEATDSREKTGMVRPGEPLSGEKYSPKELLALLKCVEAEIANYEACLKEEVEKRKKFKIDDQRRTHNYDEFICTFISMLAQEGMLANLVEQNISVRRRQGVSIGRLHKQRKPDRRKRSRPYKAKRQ
UniProt Q8IWZ3: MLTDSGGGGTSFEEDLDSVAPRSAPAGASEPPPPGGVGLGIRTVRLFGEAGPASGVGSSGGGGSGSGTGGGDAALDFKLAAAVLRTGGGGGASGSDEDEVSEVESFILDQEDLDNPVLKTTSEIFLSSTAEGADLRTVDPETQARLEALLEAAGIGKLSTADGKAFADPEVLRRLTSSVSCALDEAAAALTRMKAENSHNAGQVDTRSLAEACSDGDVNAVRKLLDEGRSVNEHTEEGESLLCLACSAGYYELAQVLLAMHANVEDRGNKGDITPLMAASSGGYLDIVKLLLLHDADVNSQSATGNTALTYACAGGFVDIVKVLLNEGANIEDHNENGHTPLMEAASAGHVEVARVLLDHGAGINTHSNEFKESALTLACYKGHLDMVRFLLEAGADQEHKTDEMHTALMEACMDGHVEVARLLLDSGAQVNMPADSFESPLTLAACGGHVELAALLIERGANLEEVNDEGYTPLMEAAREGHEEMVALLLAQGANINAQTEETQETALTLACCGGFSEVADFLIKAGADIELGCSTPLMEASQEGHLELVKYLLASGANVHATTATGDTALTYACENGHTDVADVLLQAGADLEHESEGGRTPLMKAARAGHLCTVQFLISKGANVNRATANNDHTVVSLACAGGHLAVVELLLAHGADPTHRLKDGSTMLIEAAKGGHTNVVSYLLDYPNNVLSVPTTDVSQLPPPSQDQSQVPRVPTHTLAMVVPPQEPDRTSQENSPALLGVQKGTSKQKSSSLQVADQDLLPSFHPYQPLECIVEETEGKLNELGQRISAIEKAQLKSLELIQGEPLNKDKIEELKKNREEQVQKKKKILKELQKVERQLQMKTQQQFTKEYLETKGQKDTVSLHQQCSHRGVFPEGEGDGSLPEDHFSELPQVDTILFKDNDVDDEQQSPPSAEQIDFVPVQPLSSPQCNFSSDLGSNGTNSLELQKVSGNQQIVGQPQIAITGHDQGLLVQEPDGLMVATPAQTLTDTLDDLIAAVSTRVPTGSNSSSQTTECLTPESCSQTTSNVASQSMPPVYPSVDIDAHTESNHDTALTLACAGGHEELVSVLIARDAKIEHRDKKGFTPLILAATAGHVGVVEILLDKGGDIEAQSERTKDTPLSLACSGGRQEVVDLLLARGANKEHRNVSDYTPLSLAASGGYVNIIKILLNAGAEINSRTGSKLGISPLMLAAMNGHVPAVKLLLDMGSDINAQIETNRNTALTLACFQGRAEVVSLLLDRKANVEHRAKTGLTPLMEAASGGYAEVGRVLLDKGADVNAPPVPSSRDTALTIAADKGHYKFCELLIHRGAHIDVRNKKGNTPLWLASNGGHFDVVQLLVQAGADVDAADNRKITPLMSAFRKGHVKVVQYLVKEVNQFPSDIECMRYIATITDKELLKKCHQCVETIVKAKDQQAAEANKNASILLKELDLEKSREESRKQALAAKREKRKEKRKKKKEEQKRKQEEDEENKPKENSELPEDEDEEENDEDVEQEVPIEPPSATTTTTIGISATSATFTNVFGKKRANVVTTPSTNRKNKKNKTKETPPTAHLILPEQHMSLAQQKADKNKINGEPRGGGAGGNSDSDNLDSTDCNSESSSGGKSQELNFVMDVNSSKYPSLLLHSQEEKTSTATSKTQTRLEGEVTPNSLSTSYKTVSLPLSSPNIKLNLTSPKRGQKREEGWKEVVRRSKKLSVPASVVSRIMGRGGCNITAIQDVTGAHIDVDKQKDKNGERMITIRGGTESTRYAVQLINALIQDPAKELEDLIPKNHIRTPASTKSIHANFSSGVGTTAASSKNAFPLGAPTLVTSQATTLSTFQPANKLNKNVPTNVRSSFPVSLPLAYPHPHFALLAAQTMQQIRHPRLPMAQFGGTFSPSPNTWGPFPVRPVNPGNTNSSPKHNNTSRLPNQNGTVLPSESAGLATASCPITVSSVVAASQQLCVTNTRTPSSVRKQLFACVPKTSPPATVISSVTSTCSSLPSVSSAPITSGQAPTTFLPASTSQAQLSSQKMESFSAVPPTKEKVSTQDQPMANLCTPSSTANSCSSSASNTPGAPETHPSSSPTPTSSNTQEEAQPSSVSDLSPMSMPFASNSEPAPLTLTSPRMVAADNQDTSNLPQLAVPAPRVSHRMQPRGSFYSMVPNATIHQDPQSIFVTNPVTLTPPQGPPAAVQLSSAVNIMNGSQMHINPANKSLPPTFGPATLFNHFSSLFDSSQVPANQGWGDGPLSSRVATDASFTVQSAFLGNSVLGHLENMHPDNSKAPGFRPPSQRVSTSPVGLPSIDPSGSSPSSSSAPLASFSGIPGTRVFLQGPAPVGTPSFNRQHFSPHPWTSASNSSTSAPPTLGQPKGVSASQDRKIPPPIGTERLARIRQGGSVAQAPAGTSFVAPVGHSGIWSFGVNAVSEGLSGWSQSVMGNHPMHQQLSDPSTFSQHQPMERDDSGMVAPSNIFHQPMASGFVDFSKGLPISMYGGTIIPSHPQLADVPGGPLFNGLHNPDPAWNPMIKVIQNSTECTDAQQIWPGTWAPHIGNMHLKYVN
UniProt Q9H3S4: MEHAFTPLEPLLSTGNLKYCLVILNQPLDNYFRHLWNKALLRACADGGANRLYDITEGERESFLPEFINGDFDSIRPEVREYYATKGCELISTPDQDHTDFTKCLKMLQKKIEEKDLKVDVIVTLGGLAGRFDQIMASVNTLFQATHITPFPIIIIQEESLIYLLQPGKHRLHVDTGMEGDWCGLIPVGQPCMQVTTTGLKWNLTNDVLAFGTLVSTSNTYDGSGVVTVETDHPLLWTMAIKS
UniProt P61803: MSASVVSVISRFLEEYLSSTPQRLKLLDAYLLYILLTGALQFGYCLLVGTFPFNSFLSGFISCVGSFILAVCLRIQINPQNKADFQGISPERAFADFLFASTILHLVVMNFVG
UniProt O43709: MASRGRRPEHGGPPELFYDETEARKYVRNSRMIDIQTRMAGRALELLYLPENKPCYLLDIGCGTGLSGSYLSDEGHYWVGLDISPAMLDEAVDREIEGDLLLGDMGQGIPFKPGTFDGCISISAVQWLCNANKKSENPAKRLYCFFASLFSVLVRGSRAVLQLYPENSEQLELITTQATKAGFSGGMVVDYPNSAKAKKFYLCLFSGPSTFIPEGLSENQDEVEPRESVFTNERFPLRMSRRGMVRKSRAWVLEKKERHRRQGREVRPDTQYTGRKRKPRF
UniProt Q13155: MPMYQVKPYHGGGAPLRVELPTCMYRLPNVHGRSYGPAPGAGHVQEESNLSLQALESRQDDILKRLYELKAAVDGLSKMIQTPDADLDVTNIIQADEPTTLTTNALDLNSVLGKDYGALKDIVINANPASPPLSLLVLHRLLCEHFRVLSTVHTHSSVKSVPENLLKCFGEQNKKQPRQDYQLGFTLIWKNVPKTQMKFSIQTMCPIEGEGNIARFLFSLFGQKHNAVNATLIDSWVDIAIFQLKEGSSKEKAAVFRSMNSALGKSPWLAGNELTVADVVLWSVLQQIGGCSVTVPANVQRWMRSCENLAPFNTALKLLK
UniProt O43493: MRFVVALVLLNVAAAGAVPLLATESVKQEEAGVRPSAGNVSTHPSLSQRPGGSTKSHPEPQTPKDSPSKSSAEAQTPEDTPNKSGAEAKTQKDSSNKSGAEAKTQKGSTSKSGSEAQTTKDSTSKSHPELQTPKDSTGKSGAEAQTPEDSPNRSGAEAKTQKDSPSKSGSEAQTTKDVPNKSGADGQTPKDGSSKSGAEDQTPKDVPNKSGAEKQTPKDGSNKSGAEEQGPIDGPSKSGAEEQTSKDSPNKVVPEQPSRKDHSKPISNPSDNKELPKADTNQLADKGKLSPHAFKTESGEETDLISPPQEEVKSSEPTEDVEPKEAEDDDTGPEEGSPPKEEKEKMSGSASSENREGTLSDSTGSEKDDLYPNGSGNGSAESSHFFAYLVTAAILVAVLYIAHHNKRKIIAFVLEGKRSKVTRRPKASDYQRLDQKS
UniProt Q6IQ23: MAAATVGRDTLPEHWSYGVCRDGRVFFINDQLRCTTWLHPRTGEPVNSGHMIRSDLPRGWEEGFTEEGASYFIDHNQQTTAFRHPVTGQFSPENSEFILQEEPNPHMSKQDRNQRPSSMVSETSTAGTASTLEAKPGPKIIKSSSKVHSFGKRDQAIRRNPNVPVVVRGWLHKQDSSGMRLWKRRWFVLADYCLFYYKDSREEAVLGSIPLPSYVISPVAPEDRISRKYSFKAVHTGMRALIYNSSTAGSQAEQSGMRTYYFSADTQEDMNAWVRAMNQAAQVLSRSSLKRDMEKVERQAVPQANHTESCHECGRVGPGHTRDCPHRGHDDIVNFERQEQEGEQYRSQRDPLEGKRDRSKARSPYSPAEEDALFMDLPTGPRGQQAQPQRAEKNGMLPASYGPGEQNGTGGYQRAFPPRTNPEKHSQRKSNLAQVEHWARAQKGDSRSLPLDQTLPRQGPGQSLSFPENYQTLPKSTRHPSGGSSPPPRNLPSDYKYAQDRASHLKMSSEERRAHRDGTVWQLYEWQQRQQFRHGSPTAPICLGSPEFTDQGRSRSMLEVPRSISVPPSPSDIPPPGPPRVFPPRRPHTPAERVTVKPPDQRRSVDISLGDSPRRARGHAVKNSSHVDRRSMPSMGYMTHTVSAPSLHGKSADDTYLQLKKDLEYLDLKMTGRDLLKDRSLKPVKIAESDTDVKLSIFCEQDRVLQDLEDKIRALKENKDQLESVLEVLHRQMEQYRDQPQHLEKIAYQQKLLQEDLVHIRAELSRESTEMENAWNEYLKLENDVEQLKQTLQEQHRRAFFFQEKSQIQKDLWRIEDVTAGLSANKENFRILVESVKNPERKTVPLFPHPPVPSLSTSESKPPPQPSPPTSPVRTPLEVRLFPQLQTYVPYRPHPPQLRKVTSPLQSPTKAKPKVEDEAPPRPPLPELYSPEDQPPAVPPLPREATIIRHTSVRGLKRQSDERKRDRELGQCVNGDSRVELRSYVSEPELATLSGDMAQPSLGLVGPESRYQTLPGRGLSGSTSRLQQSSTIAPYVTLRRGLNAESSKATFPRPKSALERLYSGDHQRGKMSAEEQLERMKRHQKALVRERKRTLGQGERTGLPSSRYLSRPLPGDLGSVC
UniProt Q16342: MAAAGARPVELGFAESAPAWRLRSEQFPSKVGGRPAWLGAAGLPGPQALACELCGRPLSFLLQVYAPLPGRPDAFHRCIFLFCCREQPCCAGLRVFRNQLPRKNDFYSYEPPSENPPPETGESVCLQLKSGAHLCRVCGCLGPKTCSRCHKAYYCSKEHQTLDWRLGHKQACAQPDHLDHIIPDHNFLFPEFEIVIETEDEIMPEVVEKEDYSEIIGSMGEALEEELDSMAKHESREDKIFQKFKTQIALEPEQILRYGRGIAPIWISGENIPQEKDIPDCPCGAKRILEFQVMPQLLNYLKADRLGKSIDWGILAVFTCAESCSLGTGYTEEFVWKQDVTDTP

Compound: Nc1ncnc2c1ncn2[C@@H]1O[C@H](COP(=O)(O)OP(=O)(O)OP(=O)(O)O)[C@@H](O)[C@H]1O [adenosine triphosphate]
Test: NP40-soluble protein abundance relative to vehicle (solubility fold change) (ratio); higher = more soluble protein in presence of ATP
Summary of the method: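 Values are fold changes against the detergent-processed vehicle, based on vsn-normalised intensities. Jurkat crude lysate was treated at eight concentrations from 0.1 to 10 mM (10 min at room temperature, then 3 min at 37 °C), solubilised with 0.8% NP40 and benzonase, ultracentrifuged and analysed by TMT-labelled LC-MS/MS over three independent experiments.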

Row | Target | NP40-soluble protein abundance (concentration: 1mM) | NP40-soluble protein abundance (concentration: 2mM) | NP40-soluble protein abundance (concentration: 4mM) | NP40-soluble protein abundance (concentration: 6mM) | NP40-soluble protein abundance (concentration: 8mM) | NP40-soluble protein abundance (concentration: 10mM)
1 | D6RIE5 and related entries (UniProt Q9ULK6) | 0.906 ± 0.1 | 0.941 ± 0.075 | 0.973 ± 0.19 | 0.932 ± 0.12 | 0.892 ± 0.069 | 0.841 ± 0.081
2 | G3V5T9 and related entries (UniProt P24941) | 0.98 ± 0.062 | 0.968 ± 0.044 | 0.968 ± 0.064 | 0.906 ± 0.1 | 0.96 ± 0.049 | 0.945 ± 0.031
3 | E9PB93 and related entries (UniProt O15514) | 0.963 ± 0.091 | 1.03 ± 0.039 | 1.06 ± 0.017 | 1 ± 0.043 | 0.917 ± 0.053 | 0.885 ± 0.049
4 | F8W6N3 and related entries (UniProt Q92560) | 1.04 ± 0.017 | 1.04 ± 0.071 | 1.08 ± 0.044 | 1.08 ± 0.095 | 1.1 ± 0.046 | 1.11 ± 0.077
5 | E9PDP5 and related entries (UniProt Q8IWZ3) | 0.965 ± 0.088 | 0.971 ± 0.062 | 0.986 ± 0.047 | 0.998 ± 0.058 | 0.949 ± 0.034 | 0.967 ± 0.028
6 | F5GZG6 and related entries (UniProt Q9H3S4) | 0.966 ± 0.053 | 0.987 ± 0.072 | 0.98 ± 0.022 | 0.949 ± 0.058 | 0.978 ± 0.013 | 0.96 ± 0.1
7 | F5GXX5 and related entries (UniProt P61803) | 0.882 ± 0.097 | 0.901 ± 0.044 | 0.893 ± 0.016 | 0.9 ± 0.088 | 0.895 ± 0.013 | 0.906 ± 0.022
8 | E9PEJ6 and related entries (UniProt P98196) | 1.01 ± 0.029 | 1.012 ± 0.0072 | 1.04 ± 0.016 | 0.959 ± 0.015 | 0.985 ± 0.014 | 0.972 ± 0.047
9 | F2Z3D9 and related entries (UniProt O43709) | 1.034 ± 0.0096 | 1.06 ± 0.036 | 1.14 ± 0.055 | 1.07 ± 0.057 | 1.16 ± 0.047 | 1.22 ± 0.033
10 | F8W950 and related entries (UniProt Q13155) | 0.977 ± 0.032 | 0.936 ± 0.015 | 0.915 ± 0.024 | 0.946 ± 0.13 | 0.955 ± 0.074 | 0.939 ± 0.051
11 | F8VSB6 and related entries (UniProt Q9H4P4) | 1.02 ± 0.048 | 1 ± 0.062 | 0.967 ± 0.11 | 1.11 ± 0.085 | 0.994 ± 0.04 | 1.081 ± 0.0083
12 | F8W8W7 and related entries (UniProt O43493) | 0.994 ± 0.2 | 1.02 ± 0.4 | 1 ± 0.2 | 1.05 ± 0.23 | 0.942 ± 0.11 | 0.879 ± 0.26
13 | E9PKC0 and related entries (UniProt Q6IQ23) | 1.22 ± 0.077 | 1.26 ± 0.051 | 1.27 ± 0.077 | 1.39 ± 0.076 | 1.33 ± 0.056 | 1.38 ± 0.09
14 | E9PGT3 and related entries (UniProt Q15418) | 1.04 ± 0.08 | 1.01 ± 0.073 | 0.985 ± 0.069 | 0.953 ± 0.11 | 1.01 ± 0.066 | 0.986 ± 0.064
15 | F5H4V9 and related entries (UniProt Q16342) | 0.968 ± 0.032 | 0.989 ± 0.076 | 1 ± 0.081 | 1.12 ± 0.057 | 1.02 ± 0.043 | 1.06 ± 0.012

Record cards (already shown).
D6RIE5 and related entries (UniProt Q9ULK6) is entered as NP40-soluble protein abundance (concentration: 1mM): 0.906 ± 0.1; NP40-soluble protein abundance (concentration: 2mM): 0.941 ± 0.075; NP40-soluble protein abundance (concentration: 4mM): 0.973 ± 0.19; NP40-soluble protein abundance (concentration: 6mM): 0.932 ± 0.12; NP40-soluble protein abundance (concentration: 8mM): 0.892 ± 0.069; NP40-soluble protein abundance (concentration: 10mM): 0.841 ± 0.081
E9PGT3 and related entries (UniProt Q15418) is entered as NP40-soluble protein abundance (concentration: 1mM): 1.04 ± 0.08; NP40-soluble protein abundance (concentration: 2mM): 1.01 ± 0.073; NP40-soluble protein abundance (concentration: 4mM): 0.985 ± 0.069; NP40-soluble protein abundance (concentration: 6mM): 0.953 ± 0.11; NP40-soluble protein abundance (concentration: 8mM): 1.01 ± 0.066; NP40-soluble protein abundance (concentration: 10mM): 0.986 ± 0.064
